Data published in paper PMC10987413.
For at least one entry, the source does not settle the construct or the ends of the probe. A negative result means that nothing was seen under these conditions. For some of these results: At least one verdict rests on a figure or table, not on a statement of the authors.

Chains of the proteins cited; added tags and fusions are not shown. Lines headed by an entry give the natural chain unless they say otherwise; changes in a name come on top.
UniProt Q9LXW7: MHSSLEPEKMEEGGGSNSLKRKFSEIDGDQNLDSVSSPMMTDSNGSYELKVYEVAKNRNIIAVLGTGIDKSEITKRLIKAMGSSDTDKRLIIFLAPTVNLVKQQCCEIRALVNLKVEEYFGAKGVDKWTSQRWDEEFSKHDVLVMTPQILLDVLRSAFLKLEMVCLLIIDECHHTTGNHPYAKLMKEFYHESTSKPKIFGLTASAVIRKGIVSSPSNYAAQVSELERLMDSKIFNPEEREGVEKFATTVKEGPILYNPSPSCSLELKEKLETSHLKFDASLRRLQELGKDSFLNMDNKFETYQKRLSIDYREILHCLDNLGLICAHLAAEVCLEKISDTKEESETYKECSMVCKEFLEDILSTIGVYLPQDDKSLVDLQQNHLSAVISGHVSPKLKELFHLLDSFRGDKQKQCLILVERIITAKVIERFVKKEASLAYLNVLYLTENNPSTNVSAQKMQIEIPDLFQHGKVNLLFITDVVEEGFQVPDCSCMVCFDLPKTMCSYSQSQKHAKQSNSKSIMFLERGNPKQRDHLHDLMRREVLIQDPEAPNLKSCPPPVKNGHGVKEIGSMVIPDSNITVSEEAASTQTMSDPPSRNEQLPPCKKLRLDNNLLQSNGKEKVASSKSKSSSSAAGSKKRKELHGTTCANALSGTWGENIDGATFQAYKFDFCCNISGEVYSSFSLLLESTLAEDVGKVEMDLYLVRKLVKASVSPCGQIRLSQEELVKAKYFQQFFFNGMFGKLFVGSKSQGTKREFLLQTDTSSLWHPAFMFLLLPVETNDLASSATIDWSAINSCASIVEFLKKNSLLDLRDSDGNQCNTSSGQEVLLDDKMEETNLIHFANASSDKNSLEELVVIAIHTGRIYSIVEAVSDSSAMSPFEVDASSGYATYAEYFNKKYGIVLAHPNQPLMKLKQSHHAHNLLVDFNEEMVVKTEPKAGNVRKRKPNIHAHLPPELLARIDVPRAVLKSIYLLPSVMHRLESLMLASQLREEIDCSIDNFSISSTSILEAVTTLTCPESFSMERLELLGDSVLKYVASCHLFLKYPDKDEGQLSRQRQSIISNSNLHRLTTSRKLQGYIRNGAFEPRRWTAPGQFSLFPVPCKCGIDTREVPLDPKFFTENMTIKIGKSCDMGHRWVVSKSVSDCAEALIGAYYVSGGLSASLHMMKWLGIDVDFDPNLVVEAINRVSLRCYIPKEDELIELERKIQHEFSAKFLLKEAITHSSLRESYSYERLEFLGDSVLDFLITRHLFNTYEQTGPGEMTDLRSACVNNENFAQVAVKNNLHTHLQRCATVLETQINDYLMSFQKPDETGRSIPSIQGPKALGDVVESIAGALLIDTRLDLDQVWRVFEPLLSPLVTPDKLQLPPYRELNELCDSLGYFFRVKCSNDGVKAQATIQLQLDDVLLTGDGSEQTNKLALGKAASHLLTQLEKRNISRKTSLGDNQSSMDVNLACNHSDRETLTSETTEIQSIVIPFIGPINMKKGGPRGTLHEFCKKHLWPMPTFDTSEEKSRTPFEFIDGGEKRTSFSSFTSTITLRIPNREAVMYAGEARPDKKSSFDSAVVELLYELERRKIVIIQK
UniProt P08515, whole entry: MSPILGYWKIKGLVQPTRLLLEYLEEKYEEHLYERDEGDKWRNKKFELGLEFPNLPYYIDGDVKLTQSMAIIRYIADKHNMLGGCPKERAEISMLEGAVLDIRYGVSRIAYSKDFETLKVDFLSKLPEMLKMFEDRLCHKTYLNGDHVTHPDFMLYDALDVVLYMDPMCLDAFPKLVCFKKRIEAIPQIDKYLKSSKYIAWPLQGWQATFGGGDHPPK

Legend:
[1] = molecular target: GST-DCL3 F1 (UniProt Q9LXW7); experiment: MST, EMSA; details: EMSA: as in Duan et al. 2012, 1 nmol protein, biotin-labelled RNA; recombinant protein; protein details: GST; label: biotin 3' end (EMSA), unlabeled in MST
[2] = molecular target: GST-DCL3 F2 (UniProt Q9LXW7); experiment: MST, EMSA; details: EMSA: as in Duan et al. 2012, 1 nmol protein, biotin-labelled RNA; recombinant protein; protein details: GST; label: biotin 3' end (EMSA), unlabeled in MST
[3] = molecular target: GST-DCL3 F4 (UniProt Q9LXW7); experiment: MST, EMSA; details: EMSA: as in Duan et al. 2012, 1 nmol protein, biotin-labelled RNA; recombinant protein; protein details: GST; label: biotin 3' end (EMSA), unlabeled in MST
[4] = molecular target: GST-DCL3 F3 (UniProt Q9LXW7); experiment: MST, EMSA; details: EMSA: as in Duan et al. 2012, 1 nmol protein, biotin-labelled RNA; recombinant protein; protein details: GST; label: biotin 3' end (EMSA), unlabeled in MST
[5] = molecular target: GST (UniProt P08515); experiment: EMSA; details: EMSA: as in Duan et al. 2012, 1 nmol protein, biotin-labelled RNA; recombinant protein; label: biotin 3' end (EMSA), unlabeled in MST

Measured: binding result

UCAACAGGAUCGAGCUUAAGG / UUAAGCUCGAUCCUGUUGACG [21-bp ds-sRNA (ds siRGFP)]
no binding: all assays above

UGAAUUUCUGGUAUGGGUCCCGCC / CGGGACCCAUACCAGAAAUUCAUC [24-bp ds-sRNA (dsAtSN1)]
not listed: [5]
no binding: all other assays above

UACAAGACACGUGCUGAAGUCAAGUUUGAGGGAACACCCUCGUCAACAGGAUCG / AUCCUGUUGACGAGGGUGUCUCCCUCAAACUUGACUUCAGCACGUGUCUUGUAGU [55-bp ds-sRNA]
not listed: [5]
no binding: all other assays above
